{
  "sequences": {"note": "By UniProt entry, the sequences of proteins in these tests, tags left out. Where a name states a change or a piece, a line headed by the entry shows the natural chain unless it says otherwise.", "UniProt O94888": "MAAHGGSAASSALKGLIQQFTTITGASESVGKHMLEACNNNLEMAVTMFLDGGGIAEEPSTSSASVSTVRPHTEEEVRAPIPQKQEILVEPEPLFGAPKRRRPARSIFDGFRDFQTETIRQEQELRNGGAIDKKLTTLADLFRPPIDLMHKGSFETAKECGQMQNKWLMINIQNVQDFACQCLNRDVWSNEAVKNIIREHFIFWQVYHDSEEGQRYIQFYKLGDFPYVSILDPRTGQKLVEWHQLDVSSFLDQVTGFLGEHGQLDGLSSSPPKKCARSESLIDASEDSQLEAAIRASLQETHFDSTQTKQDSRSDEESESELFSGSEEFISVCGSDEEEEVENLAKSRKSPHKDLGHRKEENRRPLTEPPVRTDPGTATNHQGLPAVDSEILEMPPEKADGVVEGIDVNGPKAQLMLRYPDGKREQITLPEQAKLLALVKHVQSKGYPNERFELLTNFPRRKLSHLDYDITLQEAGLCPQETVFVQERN", "UniProt Q92575": "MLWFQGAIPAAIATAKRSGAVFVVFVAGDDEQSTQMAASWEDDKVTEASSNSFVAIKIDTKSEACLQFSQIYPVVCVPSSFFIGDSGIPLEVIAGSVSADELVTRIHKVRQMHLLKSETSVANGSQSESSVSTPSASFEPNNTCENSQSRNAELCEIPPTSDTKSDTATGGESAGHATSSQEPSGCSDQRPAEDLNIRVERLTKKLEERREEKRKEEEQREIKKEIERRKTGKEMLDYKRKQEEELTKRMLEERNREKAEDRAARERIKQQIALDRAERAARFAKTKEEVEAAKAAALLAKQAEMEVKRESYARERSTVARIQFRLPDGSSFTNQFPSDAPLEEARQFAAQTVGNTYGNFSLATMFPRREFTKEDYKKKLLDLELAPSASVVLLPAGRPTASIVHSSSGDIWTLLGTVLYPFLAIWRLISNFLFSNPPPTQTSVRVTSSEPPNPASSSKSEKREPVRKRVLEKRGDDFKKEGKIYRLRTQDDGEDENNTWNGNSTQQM", "UniProt Q8TAA9": "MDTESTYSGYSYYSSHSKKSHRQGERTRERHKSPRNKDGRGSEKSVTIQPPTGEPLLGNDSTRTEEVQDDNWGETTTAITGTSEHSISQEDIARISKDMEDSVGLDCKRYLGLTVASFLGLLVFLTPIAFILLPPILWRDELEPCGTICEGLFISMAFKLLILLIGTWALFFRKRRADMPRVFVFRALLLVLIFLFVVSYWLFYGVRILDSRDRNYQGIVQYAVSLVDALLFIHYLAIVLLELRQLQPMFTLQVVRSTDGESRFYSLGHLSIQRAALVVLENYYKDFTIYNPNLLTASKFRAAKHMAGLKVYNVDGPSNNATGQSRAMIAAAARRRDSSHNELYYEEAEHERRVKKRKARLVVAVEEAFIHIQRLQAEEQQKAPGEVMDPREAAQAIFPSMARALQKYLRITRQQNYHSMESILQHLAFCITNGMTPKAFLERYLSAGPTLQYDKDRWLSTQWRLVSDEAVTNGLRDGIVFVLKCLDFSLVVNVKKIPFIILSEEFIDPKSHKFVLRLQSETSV", "UniProt P31930": "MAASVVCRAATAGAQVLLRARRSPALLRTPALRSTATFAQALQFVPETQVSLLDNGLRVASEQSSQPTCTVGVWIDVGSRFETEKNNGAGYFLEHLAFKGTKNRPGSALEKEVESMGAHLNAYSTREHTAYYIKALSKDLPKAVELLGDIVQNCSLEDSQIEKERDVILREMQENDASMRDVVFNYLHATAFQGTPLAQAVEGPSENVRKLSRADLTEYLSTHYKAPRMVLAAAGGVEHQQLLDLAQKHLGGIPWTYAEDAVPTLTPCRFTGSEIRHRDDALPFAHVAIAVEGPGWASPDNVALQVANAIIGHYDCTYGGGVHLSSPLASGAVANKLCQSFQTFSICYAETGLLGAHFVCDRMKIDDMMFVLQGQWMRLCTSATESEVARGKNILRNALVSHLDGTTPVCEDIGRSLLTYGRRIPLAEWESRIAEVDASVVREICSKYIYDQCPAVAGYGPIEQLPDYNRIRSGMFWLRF", "UniProt O75379": "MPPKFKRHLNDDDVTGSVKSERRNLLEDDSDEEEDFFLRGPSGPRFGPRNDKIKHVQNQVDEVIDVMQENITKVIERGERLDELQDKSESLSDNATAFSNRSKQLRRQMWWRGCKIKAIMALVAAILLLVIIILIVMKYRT", "UniProt P14927": "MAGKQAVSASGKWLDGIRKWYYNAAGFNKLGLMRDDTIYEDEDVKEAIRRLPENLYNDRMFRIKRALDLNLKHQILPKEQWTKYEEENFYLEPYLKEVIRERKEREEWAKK", "UniProt P18206": "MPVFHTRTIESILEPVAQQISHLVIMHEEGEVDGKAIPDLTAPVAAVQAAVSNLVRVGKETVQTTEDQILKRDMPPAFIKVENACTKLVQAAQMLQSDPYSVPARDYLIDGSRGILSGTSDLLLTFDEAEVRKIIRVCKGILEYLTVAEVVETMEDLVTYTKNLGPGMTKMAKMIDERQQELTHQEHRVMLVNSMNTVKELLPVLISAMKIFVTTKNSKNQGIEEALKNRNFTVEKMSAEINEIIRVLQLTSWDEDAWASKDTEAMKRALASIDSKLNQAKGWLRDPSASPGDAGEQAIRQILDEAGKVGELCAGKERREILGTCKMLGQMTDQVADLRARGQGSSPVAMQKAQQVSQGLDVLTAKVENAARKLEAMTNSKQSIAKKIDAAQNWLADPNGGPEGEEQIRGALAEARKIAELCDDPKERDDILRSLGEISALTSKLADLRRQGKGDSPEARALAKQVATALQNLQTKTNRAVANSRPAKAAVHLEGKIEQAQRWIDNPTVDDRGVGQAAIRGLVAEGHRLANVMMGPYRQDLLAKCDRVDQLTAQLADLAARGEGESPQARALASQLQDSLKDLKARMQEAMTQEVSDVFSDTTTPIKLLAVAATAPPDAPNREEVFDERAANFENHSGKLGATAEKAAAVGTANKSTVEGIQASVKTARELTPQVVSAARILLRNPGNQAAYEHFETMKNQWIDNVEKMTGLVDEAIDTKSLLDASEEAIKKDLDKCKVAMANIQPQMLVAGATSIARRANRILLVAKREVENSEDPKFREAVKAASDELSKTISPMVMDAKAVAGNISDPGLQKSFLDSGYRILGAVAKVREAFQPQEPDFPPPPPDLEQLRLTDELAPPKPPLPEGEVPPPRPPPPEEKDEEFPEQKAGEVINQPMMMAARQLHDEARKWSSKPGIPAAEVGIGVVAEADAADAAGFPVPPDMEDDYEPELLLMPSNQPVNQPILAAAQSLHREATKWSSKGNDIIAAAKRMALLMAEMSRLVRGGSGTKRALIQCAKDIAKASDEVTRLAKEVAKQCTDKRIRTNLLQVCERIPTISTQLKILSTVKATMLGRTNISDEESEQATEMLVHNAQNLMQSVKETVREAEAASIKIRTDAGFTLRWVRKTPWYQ", "UniProt P45974": "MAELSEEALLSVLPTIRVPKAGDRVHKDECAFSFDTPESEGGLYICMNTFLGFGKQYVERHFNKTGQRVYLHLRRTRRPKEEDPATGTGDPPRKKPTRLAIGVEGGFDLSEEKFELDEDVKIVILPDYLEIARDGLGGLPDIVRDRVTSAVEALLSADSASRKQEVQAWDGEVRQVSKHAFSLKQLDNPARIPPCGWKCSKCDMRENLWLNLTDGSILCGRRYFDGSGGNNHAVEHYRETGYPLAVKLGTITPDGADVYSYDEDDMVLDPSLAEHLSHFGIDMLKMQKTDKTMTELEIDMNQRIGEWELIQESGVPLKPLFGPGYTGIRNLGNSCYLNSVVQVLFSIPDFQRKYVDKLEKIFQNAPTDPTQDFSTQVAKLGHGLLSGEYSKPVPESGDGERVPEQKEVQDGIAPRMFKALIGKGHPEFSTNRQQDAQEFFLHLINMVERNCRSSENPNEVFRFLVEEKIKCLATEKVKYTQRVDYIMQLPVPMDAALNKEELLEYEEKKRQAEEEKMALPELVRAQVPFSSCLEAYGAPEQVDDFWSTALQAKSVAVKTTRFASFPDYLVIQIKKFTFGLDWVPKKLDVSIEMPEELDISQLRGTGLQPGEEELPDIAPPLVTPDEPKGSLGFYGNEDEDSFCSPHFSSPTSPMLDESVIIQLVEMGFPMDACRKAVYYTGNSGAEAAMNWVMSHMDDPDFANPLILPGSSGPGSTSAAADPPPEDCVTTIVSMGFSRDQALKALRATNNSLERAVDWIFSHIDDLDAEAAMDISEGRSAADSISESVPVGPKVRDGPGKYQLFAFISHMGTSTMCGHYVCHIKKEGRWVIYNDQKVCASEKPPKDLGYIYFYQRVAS", "UniProt Q9UHD9, whole entry, looked up": "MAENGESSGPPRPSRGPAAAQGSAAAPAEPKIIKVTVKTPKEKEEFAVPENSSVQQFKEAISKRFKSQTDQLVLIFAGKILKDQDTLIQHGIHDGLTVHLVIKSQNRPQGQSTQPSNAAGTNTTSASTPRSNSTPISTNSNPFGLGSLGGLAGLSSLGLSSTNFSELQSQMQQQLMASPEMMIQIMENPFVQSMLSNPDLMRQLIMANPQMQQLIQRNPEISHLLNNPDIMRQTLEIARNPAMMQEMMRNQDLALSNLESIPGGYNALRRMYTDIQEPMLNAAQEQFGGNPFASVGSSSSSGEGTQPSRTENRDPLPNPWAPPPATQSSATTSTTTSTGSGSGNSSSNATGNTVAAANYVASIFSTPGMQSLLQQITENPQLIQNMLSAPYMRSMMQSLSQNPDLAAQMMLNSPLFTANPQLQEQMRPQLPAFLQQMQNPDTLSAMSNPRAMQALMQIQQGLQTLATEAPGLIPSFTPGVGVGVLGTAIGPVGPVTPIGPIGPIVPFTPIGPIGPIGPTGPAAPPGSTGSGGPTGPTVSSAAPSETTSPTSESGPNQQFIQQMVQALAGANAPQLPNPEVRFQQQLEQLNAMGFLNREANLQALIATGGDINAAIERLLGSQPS", "UniProt Q9BZL1": "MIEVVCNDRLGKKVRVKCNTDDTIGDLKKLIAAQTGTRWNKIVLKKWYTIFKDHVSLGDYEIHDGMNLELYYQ", "UniProt Q53GS9": "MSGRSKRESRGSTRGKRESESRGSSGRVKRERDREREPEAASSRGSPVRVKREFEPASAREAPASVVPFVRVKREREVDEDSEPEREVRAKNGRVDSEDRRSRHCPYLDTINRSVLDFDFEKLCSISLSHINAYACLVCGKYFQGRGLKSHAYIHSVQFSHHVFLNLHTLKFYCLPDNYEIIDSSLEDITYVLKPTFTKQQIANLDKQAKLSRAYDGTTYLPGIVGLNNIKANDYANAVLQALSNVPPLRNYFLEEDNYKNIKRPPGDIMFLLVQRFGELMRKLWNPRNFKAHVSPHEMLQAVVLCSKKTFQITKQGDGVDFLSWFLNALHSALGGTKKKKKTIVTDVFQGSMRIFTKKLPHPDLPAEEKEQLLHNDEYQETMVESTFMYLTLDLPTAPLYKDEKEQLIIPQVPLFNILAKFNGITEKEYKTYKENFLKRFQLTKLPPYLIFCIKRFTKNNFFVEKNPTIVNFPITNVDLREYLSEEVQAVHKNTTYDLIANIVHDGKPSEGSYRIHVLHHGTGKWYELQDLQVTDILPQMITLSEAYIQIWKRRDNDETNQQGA", "UniProt Q70J99": "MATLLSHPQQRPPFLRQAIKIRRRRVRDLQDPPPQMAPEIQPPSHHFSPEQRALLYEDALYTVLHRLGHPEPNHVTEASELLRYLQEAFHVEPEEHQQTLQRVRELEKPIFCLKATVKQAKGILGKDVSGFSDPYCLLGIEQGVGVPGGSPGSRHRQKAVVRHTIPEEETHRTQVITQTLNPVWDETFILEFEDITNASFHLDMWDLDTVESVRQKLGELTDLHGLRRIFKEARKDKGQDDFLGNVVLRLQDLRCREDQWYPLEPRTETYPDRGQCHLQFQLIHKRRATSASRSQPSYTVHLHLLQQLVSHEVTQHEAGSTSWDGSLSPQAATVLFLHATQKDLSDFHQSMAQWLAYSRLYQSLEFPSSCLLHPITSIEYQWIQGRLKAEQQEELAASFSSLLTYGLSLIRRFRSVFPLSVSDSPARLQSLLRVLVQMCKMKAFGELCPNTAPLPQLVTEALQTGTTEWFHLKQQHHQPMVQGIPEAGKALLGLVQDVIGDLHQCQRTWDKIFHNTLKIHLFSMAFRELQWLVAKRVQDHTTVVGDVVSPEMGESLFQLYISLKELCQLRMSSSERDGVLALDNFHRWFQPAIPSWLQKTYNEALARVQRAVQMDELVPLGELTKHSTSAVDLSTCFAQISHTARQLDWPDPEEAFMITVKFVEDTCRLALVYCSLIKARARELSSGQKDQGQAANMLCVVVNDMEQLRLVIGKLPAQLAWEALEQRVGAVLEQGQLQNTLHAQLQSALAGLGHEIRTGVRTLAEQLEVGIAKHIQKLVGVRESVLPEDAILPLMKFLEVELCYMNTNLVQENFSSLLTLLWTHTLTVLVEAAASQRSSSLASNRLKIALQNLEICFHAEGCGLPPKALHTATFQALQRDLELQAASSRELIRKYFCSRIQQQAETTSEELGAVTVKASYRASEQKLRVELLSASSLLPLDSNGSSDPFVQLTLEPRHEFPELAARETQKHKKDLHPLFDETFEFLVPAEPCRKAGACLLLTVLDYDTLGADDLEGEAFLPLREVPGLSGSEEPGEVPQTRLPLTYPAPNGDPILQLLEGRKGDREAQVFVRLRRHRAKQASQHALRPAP"},
  "source": "the supplement of paper PMC10849652",
  "note": "The list shows a part of the results.",
  "data": [
    {"compound": "CS(=O)(=O)c1ccc(-c2cnc(N)c(C(=O)Nc3ccccc3)n2)cc1", "experiment": "log2 fold change, soluble protein after heating vs DMSO (PISA); higher = thermal stabilisation; K562 cells, 10 uM, 30 min; active = over 0.2 and 3.5 SD of the protein, either way, in both replicates (recomputed)", "procedure,_shortened": "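K562 cells (2×10^6 cells/mL) were treated with 10 μM compound for 30 min, and aliquots were heated for 3 min over 48°C-58°C. Pooled aliquots were extracted in PBS with 0.5% NP-40 at 4°C, and the supernatant after 21,000xg for 90 min was measured by TMTpro 16plex LC-MS/MS with channel sums equalised. Reported thermal stability, relative to control samples and from duplicates, is a log2 fold change.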", "values": [
      {"target": "UBXN7 (UniProt O94888)", "log2 fold change": "inactive: -0.02"},
      {"target": "URGCP (UniProt Q8TCY9)", "log2 fold change": "inactive: 0.106"},
      {"target": "UBXN4 (UniProt Q92575)", "log2 fold change": "inactive: 0.031"},
      {"target": "VANGL1 (UniProt Q8TAA9)", "log2 fold change": "inactive: 0.09"},
      {"target": "UCK1 (UniProt Q9HA47)", "log2 fold change": "inactive: 0.025"},
      {"target": "UGP2 (UniProt Q16851)", "log2 fold change": "inactive: 0.01"},
      {"target": "UQCRC1 (UniProt P31930)", "log2 fold change": "inactive: -0.01"},
      {"target": "VAPA isoform 2 (UniProt Q9P0L0)", "log2 fold change": "inactive: 0.027"},
      {"target": "UBQLN4 (UniProt Q9NRR5)", "log2 fold change": "inactive: -0.084"},
      {"target": "VAMP4 (UniProt O75379)", "log2 fold change": "inactive: 0.026"},
      {"target": "VAPB (UniProt O95292)", "log2 fold change": "inactive: -0.018"},
      {"target": "UVRAG (UniProt Q9P2Y5)", "log2 fold change": "inactive: 0.103"},
      {"target": "UQCRB (UniProt P14927)", "log2 fold change": "inactive: 0.007"},
      {"target": "VCL (UniProt P18206)", "log2 fold change": "inactive: -0.033"},
      {"target": "UIMC1 (UniProt Q96RL1)", "log2 fold change": "inactive: -0.097"},
      {"target": "UBR5 (UniProt O95071)", "log2 fold change": "inactive: -0.023"},
      {"target": "USP5 (UniProt P45974)", "log2 fold change": "inactive: 0.042"},
      {"target": "UQCRFS1 (UniProt P47985)", "log2 fold change": "inactive: -0.014"},
      {"target": "UMPS (UniProt P11172)", "log2 fold change": "inactive: 0.043"},
      {"target": "UQCRC2 (UniProt P22695)", "log2 fold change": "inactive: -0.022"},
      {"target": "UBQLN2 (UniProt Q9UHD9)", "log2 fold change": "inactive: -0.02"},
      {"target": "UQCC1 (UniProt Q9NVA1)", "log2 fold change": "inactive: -0.017"},
      {"target": "VAT1 (UniProt Q99536)", "log2 fold change": "inactive: 0.023"},
      {"target": "UBL5 (UniProt Q9BZL1)", "log2 fold change": "inactive: 0.042"},
      {"target": "VBP1 (UniProt P61758)", "log2 fold change": "inactive: 0.016"},
      {"target": "USP39 (UniProt Q53GS9)", "log2 fold change": "inactive: 0.012"},
      {"target": "VAMP2 (UniProt P63027)", "log2 fold change": "inactive: -0.035"},
      {"target": "UFC1 (UniProt Q9Y3C8)", "log2 fold change": "inactive: -0.039"},
      {"target": "UQCRH (UniProt P07919)", "log2 fold change": "inactive: -0.035"},
      {"target": "USP10 isoform 2 (UniProt Q14694)", "log2 fold change": "inactive: -0.041"},
      {"target": "USP48 (UniProt Q86UV5)", "log2 fold change": "inactive: 0.015"},
      {"target": "UCHL3 (UniProt P15374)", "log2 fold change": "inactive: 0.005"},
      {"target": "VASP (UniProt P50552)", "log2 fold change": "inactive: 0.011"},
      {"target": "UEVLD (UniProt Q8IX04)", "log2 fold change": "inactive: -0.027"},
      {"target": "UPF1 (UniProt Q92900)", "log2 fold change": "inactive: -0.034"},
      {"target": "UNC45A (UniProt Q9H3U1)", "log2 fold change": "inactive: -0.009"},
      {"target": "USP8 (UniProt P40818)", "log2 fold change": "inactive: 0.077"},
      {"target": "UNC13D isoform 3 (UniProt Q70J99)", "log2 fold change": "inactive: 0.037"},
      {"target": "UBXN1 (UniProt Q04323)", "log2 fold change": "inactive: 0.016"}
    ]}
  ]
}
